In article PMC6715661, “Cardiac MLC2 kinase is localized to the Z-disc and interacts with α-actinin2” (Scientific Reports, 2019):
No constants are given. Whether binding was seen depends on the method and setting. Binding seen in cells or lysates may run through a third protein. Some binding calls cover weakened binding; strength is not graded here. Tags and fused reporters may be left off the sequences shown.

Amino acid sequences for entries named in this document (tags omitted).
UniProt Q9JI91: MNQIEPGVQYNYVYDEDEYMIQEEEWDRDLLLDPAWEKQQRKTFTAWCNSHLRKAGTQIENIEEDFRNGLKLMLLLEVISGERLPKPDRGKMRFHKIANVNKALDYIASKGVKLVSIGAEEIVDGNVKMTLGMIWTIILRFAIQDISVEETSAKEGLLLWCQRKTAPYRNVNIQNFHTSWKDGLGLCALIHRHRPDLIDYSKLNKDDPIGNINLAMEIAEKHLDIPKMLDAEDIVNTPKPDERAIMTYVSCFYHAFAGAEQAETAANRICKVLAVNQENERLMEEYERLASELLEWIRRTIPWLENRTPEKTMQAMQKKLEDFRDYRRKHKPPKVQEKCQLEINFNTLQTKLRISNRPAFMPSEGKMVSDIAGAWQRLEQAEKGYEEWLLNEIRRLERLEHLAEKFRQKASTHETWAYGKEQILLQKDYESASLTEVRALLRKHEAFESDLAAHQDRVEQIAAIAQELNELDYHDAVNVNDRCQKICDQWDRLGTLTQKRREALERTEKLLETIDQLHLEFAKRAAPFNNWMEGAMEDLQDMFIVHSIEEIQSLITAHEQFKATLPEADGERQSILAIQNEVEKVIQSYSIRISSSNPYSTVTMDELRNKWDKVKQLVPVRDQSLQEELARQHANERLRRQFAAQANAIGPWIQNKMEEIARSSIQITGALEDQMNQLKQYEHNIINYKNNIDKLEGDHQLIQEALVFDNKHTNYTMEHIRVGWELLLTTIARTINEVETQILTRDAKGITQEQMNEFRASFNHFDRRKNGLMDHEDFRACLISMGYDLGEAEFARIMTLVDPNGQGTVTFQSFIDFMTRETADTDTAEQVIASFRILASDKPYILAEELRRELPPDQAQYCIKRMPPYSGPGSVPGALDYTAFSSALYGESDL

Key:
[1] = target: T1, HA-tagged cMLCK(171–795) (mouse) (UniProt Q3UIZ8); assay: co-IP; HA-tagged cMLCK forms and Myc-tagged α-actinin2 forms mixed in vitro; how the complex was isolated and detected is not told for this experiment
T1 sequence: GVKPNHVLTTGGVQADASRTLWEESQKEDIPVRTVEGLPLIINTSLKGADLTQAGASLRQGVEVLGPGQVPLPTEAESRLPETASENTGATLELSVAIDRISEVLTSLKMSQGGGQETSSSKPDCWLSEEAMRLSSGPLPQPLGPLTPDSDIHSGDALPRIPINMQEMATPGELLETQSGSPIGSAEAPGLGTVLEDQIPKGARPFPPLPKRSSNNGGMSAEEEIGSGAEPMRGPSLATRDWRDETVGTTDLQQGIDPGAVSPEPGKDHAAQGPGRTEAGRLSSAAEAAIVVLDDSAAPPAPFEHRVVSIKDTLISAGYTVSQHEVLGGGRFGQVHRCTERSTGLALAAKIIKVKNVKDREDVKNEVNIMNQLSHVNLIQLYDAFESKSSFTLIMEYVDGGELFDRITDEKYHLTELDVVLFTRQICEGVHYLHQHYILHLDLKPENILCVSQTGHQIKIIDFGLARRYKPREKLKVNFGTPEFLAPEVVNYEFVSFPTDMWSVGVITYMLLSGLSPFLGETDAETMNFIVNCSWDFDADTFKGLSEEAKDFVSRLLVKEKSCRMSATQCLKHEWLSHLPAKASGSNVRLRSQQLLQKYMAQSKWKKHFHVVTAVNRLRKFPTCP

[2] = target: T2, HA-tagged cMLCK (cardiac-specific myosin light chain kinase) expressed in transgenic mouse hearts (mouse) (UniProt Q3UIZ8); assay: co-IP; mouse heart lysates; lysis buffer 25 mM HEPES, 100 mM NaCl, 5 mM MgCl2, 1 mM DTT, 1% triton, 10% glycerol, pH 7.6; precipitated with HA-agarose, Western blotting
T2 sequence: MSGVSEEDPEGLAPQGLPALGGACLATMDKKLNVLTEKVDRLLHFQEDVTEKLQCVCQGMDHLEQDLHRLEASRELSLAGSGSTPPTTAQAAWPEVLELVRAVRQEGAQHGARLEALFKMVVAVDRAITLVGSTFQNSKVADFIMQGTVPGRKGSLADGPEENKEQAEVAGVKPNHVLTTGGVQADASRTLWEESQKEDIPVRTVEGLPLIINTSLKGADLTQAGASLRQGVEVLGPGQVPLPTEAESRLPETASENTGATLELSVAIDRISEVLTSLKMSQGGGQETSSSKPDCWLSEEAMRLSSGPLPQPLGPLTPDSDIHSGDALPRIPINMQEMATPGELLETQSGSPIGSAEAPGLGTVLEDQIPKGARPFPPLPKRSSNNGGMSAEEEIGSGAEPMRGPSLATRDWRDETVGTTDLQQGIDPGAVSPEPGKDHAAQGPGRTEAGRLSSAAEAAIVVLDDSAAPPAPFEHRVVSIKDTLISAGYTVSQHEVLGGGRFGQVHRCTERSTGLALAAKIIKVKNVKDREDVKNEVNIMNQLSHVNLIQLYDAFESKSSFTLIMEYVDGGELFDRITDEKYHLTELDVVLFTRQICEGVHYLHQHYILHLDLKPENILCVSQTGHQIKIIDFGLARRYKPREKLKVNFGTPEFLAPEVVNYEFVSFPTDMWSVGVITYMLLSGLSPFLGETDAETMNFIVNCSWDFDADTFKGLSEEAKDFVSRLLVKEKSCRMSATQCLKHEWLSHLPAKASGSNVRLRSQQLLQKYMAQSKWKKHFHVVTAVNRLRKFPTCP

| Substance | binding [1] | binding [2] |
| --- | --- | --- |
| Myc-α-actinin2, full length, expressed in HEK293 cells (from UniProt Q9JI91 1-894) | binds |  |
| α-actinin2, endogenous in mouse heart (from UniProt Q9JI91 1-894) |  | binds |
